PubChem BioAssay AID1259308, NCATS | 2017

Aim: 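Knock-downs that increase output of a recombinant reporter protein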 (primary screen)
System: human HEK293 embryonic kidney cells stably expressing firefly luciferase (HEK-CMV-Luc2-Hygro)
Reagents: single siRNA against human genes, 0.8 pmol siRNA per well
Timing: 72 h
Measured: 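Reporter luminescence and viable-cell signal on separate replicate plates, given as percent of non-targeting control and median/MAD z-scores, plus per-cell luciferase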
Reading the numbers: total luciferase, z-score and total luciferase, % of control: higher = more reporter protein produced; luciferase per cell, z-score: higher = more reporter output per viable cell; viable cells, % of control: higher = more viable cells
Active means: 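An siRNA counts as active if its total luciferase robust z-score exceeds 3; genes with two or more such siRNAs out of three were retested with fresh siRNAs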
Calls: active = raised luciferase; inactive = no rise
This is an unselected part of about 59,000 reagents tested. About 1,510 of all reagents (2.6%) were called active. 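Calls use total luciferase alone and ignore viability, so some active siRNAs may act by altering cell number.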 Reagents against one gene are numbered here. Reagent sequences are not shown.

no.	Target gene	reagent	total luciferase, z-score	total luciferase, % of control	luciferase per cell, z-score	viable cells, % of control	activity call
1	LRRC8D (leucine rich repeat containing 8 VRAC subunit D)	1	-1.14	59.3	-0.665	78.9	inactive
2	LRRC8D (leucine rich repeat containing 8 VRAC subunit D)	2	2.42	130	3.02	65.5	inactive
3	LRRC8D (leucine rich repeat containing 8 VRAC subunit D)	3	-0.386	74.2	-0.513	94.9	inactive
4	OR5F1 (olfactory receptor family 5 subfamily F member 1)	1	-0.671	68.5	0.332	70.2	inactive
5	OR5F1 (olfactory receptor family 5 subfamily F member 1)	2	-0.729	67.4	1.1	56.3	inactive
6	OR5F1 (olfactory receptor family 5 subfamily F member 1)	3	-0.297	76	-1.19	116	inactive
7	LINC01014 (long independently transcribed non-coding RNA 1014)	1	1.95	121	2.21	75.4	inactive
8	LINC01014 (long independently transcribed non-coding RNA 1014)	2	0.25	86.9	1.02	74.3	inactive
9	LINC01014 (long independently transcribed non-coding RNA 1014)	3	-2.57	30.7	-1.27	47.9	inactive
10	ZSCAN25 (zinc finger and SCAN domain containing 25)	1	1.43	110	1.14	91.2	inactive
11	ZSCAN25 (zinc finger and SCAN domain containing 25)	2	0.3	87.9	0.00424	98.1	inactive
12	ZSCAN25 (zinc finger and SCAN domain containing 25)	3	-0.47	72.5	-0.337	88.6	inactive
13	C19orf47 (chromosome 19 open reading frame 47)	1	-2.46	33	-1.81	59.3	inactive
14	C19orf47 (chromosome 19 open reading frame 47)	2	-0.347	75	-0.0898	85.8	inactive
15	C19orf47 (chromosome 19 open reading frame 47)	3	-0.833	65.3	-1.27	102	inactive
16	RWDD3 (RWD domain containing 3)	1	0.21	86.1	0.248	90.1	inactive
17	RWDD3 (RWD domain containing 3)	2	-0.446	73	-0.623	96.1	inactive
18	RWDD3 (RWD domain containing 3)	3	0.239	86.6	-0.0387	97.8	inactive
19	GPHN (gephyrin)	1	0.0873	83.6	-0.793	115	inactive
20	GPHN (gephyrin)	2	1.95	121	1.12	100	inactive
21	GPHN (gephyrin)	3	-0.371	74.5	-0.902	106	inactive
22	ZNF622 (zinc finger protein 622)	1	-0.00854	81.7	0.498	80.1	inactive
23	ZNF622 (zinc finger protein 622)	2	1.1	104	0.588	99.4	inactive
24	ZNF622 (zinc finger protein 622)	3	0.428	90.4	-0.43	113	inactive
25	AGAP1 (ArfGAP with GTPase domain, ankyrin repeat and PH domain 1)	1	0.565	93.1	0.474	91.9	inactive
26	AGAP1 (ArfGAP with GTPase domain, ankyrin repeat and PH domain 1)	2	0.476	91.3	0.986	78.7	inactive
27	AGAP1 (ArfGAP with GTPase domain, ankyrin repeat and PH domain 1)	3	0.893	99.7	0.638	94.1	inactive
28	ECM2 (extracellular matrix protein 2)	1	0.184	85.6	0.264	89.2	inactive
29	ECM2 (extracellular matrix protein 2)	2	-0.331	75.3	-0.313	91.4	inactive
30	ECM2 (extracellular matrix protein 2)	3	0.132	84.5	-0.0731	96.3	inactive
31	SOX9-AS1 (SOX9 antisense RNA 1)	1	-1.07	60.6	-1.33	96	inactive
32	SOX9-AS1 (SOX9 antisense RNA 1)	2	-0.00124	81.9	-0.445	103	inactive
33	SOX9-AS1 (SOX9 antisense RNA 1)	3	1.76	117	0.87	104	inactive
34	SOX9-AS1 (SOX9 antisense RNA 1)	4	0.358	89	0.27	92.6	inactive
35	SOX9-AS1 (SOX9 antisense RNA 1)	5	1.06	103	0.899	90.8	inactive
36	SOX9-AS1 (SOX9 antisense RNA 1)	6	2.49	131	2.25	81.2	inactive
37	IL15RA (interleukin 15 receptor subunit alpha)	1	0.246	86.8	-0.141	101	inactive
38	IL15RA (interleukin 15 receptor subunit alpha)	2	3.38	149	2.19	93.7	active
39	IL15RA (interleukin 15 receptor subunit alpha)	3	-0.395	74	-0.216	87.6	inactive
40	CRYBA2 (crystallin beta A2)	1	1.25	107	1.67	76.8	inactive
41	CRYBA2 (crystallin beta A2)	2	2.33	128	2.75	69.4	inactive
42	CRYBA2 (crystallin beta A2)	3	2.16	125	1.62	91	inactive
43	OR2A4 (olfactory receptor family 2 subfamily A member 4)	1	-0.557	70.8	1.07	59.7	inactive
44	OR2A4 (olfactory receptor family 2 subfamily A member 4)	2	0.487	91.6	0.409	91.9	inactive
45	OR2A4 (olfactory receptor family 2 subfamily A member 4)	3	-0.0555	80.8	-0.805	112	inactive

The list goes on (4 carried over from the part before).
no.	Target gene	reagent	total luciferase, z-score	total luciferase, % of control	luciferase per cell, z-score	viable cells, % of control	activity call
42	CRYBA2 (crystallin beta A2)	3	2.16	125	1.62	91	inactive
43	OR2A4 (olfactory receptor family 2 subfamily A member 4)	1	-0.557	70.8	1.07	59.7	inactive
44	OR2A4 (olfactory receptor family 2 subfamily A member 4)	2	0.487	91.6	0.409	91.9	inactive
45	OR2A4 (olfactory receptor family 2 subfamily A member 4)	3	-0.0555	80.8	-0.805	112	inactive
46	GART	1	2.92	140	1.84	96.4	inactive
47	GART	2	-0.794	66.1	-0.0181	74.2	inactive
48	GART	3	-0.464	72.7	-0.175	85	inactive
49	ATP1A3 (ATPase Na+/K+ transporting subunit alpha 3)	1	0.365	89.1	0.0719	97.7	inactive
50	ATP1A3 (ATPase Na+/K+ transporting subunit alpha 3)	2	0.686	95.5	-0.165	112	inactive
51	ATP1A3 (ATPase Na+/K+ transporting subunit alpha 3)	3	-0.823	65.5	0.591	62.7	inactive
52	DHH (desert hedgehog signaling molecule)	1	-2.29	36.4	-2.93	87.9	inactive
53	DHH (desert hedgehog signaling molecule)	2	-0.389	74.1	-0.642	98.1	inactive
54	DHH (desert hedgehog signaling molecule)	3	-0.139	79.1	-0.703	106	inactive
55	SULT2A1 (sulfotransferase family 2A member 1)	1	6.59	213	3.07	106	active
56	SULT2A1 (sulfotransferase family 2A member 1)	2	-0.195	78	-0.943	112	inactive
57	SULT2A1 (sulfotransferase family 2A member 1)	3	-1.27	56.7	-1.15	85.8	inactive
58	AGT (angiotensinogen)	1	-0.0269	81.4	0.104	88.4	inactive
59	AGT (angiotensinogen)	2	0.697	95.7	-0.258	115	inactive
60	AGT (angiotensinogen)	3	-1.9	44	-1.28	69	inactive
61	SPTAN1 (spectrin alpha, non-erythrocytic 1)	1	-0.697	68	0.0477	75.1	inactive
62	SPTAN1 (spectrin alpha, non-erythrocytic 1)	2	-1.44	53.2	-2.02	101	inactive
63	SPTAN1 (spectrin alpha, non-erythrocytic 1)	3	0.558	93	0.9	82	inactive
64	BIVM (basic, immunoglobulin-like variable motif containing)	1	-1.24	57.2	-0.481	72.5	inactive
65	BIVM (basic, immunoglobulin-like variable motif containing)	2	-0.923	63.5	-0.718	85.8	inactive
66	BIVM (basic, immunoglobulin-like variable motif containing)	3	0.324	88.3	0.14	95.1	inactive
67	DTD2 (D-aminoacyl-tRNA deacylase 2)	1	0.0705	83.3	0.015	92.7	inactive
68	DTD2 (D-aminoacyl-tRNA deacylase 2)	2	2.06	123	1.58	90.6	inactive
69	DTD2 (D-aminoacyl-tRNA deacylase 2)	3	-0.516	71.6	0.0849	78.3	inactive
70	SARNP (SAP domain containing ribonucleoprotein)	1	0.564	93.1	1.73	65.9	inactive
71	SARNP (SAP domain containing ribonucleoprotein)	2	3.46	151	2.06	97.8	active
72	SARNP (SAP domain containing ribonucleoprotein)	3	-0.581	70.3	-0.514	90	inactive
73	ADAM29 (ADAM metallopeptidase domain 29)	1	0.801	97.8	0.725	90.3	inactive
74	ADAM29 (ADAM metallopeptidase domain 29)	2	-0.642	69.1	-1.14	104	inactive
75	ADAM29 (ADAM metallopeptidase domain 29)	3	0.061	83.1	-0.183	97.4	inactive
